Assay results reported in patent publication US7160914B2, “Compounds that exhibit specific molecular recognition of mixed nucleic acid sequences and bind in the DNA minor groove as a dimer” (The University of North Carolina at Chapel Hill, priority 1999, dated 2007).

System: oligo1 (AATT sequence hairpin)
Conditions: oligo1, SPR

Row | SMILES | binding stoichiometry at saturation (compound per duplex)
1 | N=C(N)c1ccc2nc(-c3ccc(-c4nc5ccc(C(=N)N)cc5[nH]4)o3)[nH]c2c1 [DB270, reference compound] | single molecule
2 | N=C(N)c1ccc(-c2ccc(-c3nc4ccc(C(=N)N)cc4[nH]3)o2)cc1 [DB293] | single molecule
